Measured values as given in patent US6399747.
Results are given in words; binding and its absence hold for the method and conditions named. For part of these data: Binding seen in cells or lysates may run through a third protein. Some entries that bind do so weakly or less than the wild type. For part of these data: Sequences can lack the tags named with a protein. One block for each binder: values may come before it.

Protein sequences, listed by entry. Tags and fused reporters are not part of them. Lines headed by an entry give the natural chain unless they say otherwise; changes in a name come on top.
UniProt P04386: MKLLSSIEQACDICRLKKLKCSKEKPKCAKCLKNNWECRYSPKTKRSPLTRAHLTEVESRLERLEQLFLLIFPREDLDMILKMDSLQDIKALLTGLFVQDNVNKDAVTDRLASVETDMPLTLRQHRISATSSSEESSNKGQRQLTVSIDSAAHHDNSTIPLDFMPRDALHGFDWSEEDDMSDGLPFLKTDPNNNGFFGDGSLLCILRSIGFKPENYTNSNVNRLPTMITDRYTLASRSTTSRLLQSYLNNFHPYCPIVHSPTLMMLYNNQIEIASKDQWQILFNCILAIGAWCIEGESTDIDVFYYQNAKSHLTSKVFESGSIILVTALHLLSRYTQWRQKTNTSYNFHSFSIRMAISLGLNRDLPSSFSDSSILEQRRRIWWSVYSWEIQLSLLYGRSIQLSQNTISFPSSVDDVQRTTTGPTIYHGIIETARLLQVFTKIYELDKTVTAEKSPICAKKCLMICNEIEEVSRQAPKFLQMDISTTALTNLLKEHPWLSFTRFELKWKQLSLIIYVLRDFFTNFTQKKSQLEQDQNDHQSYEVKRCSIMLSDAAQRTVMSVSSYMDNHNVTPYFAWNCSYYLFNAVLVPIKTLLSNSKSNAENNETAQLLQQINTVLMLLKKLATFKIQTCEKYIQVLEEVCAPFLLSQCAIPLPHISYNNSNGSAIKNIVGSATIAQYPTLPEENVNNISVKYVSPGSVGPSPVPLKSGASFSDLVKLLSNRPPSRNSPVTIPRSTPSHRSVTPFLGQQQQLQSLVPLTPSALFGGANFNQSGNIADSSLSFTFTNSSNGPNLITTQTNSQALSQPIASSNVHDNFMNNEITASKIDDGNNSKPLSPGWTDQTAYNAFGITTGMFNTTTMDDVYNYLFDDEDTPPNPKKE

How the values were obtained:
[1] = biological target: T1, isolated SH2 region of p52 Shc (yeast two-hybrid construct) (UniProt P29353); test: yeast two-hybrid with isolated domains
T1 sequence (looked up): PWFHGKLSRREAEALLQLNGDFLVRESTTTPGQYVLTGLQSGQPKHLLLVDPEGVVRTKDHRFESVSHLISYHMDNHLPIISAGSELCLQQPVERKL

[2] = biological target: GAL4-Shc hybrid fusion protein (full length human p52 Shc fused to the DNA binding domain of GAL4, pAS-1) (yeast; human) (UniProt P04386+P29353); test: yeast two-hybrid, full length p52 Shc as bait
[3] = biological target: T2, mPAL (amino acids 11 to 648) expressed in 293T cells from pcDNA3.1-mPAL (mouse) (UniProt Q9Z179); test: GST pull-down, 2.5 µg GST-Shc SH2 with 293T-mPAL lysate and 10, 50 and 100 mM free phosphoamino acids
T2 sequence: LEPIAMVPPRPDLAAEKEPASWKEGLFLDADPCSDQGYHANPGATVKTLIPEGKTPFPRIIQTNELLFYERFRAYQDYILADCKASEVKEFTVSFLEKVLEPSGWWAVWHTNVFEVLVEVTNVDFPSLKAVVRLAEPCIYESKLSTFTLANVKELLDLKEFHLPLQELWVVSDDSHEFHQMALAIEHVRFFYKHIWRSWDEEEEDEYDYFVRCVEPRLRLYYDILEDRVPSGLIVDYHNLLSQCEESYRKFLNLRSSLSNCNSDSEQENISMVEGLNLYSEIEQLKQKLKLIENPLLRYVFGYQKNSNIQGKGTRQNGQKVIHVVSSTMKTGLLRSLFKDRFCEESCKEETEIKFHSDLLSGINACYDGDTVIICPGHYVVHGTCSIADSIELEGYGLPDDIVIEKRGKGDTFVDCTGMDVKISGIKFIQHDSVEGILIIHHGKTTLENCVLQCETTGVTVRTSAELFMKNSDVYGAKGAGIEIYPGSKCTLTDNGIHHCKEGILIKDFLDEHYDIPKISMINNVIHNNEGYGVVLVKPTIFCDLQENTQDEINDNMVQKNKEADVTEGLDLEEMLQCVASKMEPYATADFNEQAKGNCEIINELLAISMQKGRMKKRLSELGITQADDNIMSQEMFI

[4] = biological target: T2, mPAL (amino acids 11 to 648) expressed in 293T cells from pcDNA3.1-mPAL (mouse); test: GST pull-down from pcDNA3.1-mPAL-transfected 293T lysate, anti-PAL immunoblot
[5] = biological target: T2, mPAL (amino acids 11 to 648) expressed in 293T cells from pcDNA3.1-mPAL (mouse); test: GST pull-down from cell lysate with 10, 50 and 100 mM free phosphoamino acids
[6] = biological target: T2, mPAL (amino acids 11 to 648) expressed in 293T cells from pcDNA3.1-mPAL (mouse); test: GST pull-down from 293T-mPAL lysate with a panel of GST-SH2 fusions
[7] = biological target: T2, mPAL (amino acids 11 to 648) expressed in 293T cells from pcDNA3.1-mPAL (mouse); test: GST pull-down, anti-mPAL immunoblot
[8] = biological target: T2, mPAL (amino acids 11 to 648) expressed in 293T cells from pcDNA3.1-mPAL (mouse); test: GST pull-down
[9] = biological target: T3, human p52 Shc expressed in 293T cells from pECE-Shc (human) (UniProt P29353); test: co-immunoprecipitation from co-transfected 293T cells, anti-mPAL IP, anti-Shc immunoblot
T3 sequence (looked up): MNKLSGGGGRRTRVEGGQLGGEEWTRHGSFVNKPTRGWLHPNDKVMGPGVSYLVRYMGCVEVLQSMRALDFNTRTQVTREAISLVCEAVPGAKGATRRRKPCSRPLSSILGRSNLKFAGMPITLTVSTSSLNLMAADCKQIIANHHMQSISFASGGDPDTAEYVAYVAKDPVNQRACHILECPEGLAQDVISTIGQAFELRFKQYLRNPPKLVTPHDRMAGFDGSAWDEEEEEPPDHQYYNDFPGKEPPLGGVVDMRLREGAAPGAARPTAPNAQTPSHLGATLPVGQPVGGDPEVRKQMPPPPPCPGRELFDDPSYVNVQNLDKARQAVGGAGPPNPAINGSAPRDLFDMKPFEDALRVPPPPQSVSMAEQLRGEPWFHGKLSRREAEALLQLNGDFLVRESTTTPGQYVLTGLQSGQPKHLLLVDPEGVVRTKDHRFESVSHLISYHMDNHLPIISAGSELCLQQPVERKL

[10] = biological target: T4, p46 Shc expressed in 293T cells from pECE-Shc (human) (UniProt P29353); test: as above
T4 sequence (looked up): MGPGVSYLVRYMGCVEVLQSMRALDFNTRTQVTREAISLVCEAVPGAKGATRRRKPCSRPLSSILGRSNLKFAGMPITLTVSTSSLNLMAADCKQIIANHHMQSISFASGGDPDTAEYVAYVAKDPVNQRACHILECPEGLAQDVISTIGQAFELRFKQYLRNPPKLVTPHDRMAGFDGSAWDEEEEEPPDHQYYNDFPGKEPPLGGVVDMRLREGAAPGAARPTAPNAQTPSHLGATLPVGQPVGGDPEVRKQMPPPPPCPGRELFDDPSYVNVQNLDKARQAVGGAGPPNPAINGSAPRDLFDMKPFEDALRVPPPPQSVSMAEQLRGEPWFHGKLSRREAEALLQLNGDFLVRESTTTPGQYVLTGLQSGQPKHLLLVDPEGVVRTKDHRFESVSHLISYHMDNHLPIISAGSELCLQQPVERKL

[11] = biological target: T5, endogenous Shc of murine cells (NIH 3T3 lysate, primary T cells) (mouse) (UniProt P98083); test: GST pull-down, 10 µg fusion protein with about 1 mg NIH-3T3 lysate, anti-Shc immunoblot
T5 sequence (looked up): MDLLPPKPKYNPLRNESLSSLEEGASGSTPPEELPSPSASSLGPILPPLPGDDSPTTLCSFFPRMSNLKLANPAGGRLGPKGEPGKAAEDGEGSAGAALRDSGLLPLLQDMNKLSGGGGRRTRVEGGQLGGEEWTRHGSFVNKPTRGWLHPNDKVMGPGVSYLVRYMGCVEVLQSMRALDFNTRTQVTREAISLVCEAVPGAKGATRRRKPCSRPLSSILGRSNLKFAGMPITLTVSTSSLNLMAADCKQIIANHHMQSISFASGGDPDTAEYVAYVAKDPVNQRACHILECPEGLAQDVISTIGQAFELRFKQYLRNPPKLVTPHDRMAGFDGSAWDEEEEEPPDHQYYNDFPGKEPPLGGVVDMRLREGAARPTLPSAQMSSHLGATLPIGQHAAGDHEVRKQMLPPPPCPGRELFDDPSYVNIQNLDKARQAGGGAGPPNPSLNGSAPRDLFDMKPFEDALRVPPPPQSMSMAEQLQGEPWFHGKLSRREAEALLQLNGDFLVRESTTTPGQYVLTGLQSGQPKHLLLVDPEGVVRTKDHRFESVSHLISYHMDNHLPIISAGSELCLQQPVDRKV

[12] = biological target: T2, mPAL (amino acids 11 to 648) expressed in 293T cells from pcDNA3.1-mPAL (mouse); test: co-immunoprecipitation from co-transfected 293T cells, anti-Shc IP, anti-mPAL immunoblot

binding [1]: binds
binding [2]: binds
B1: mPAL cDNA clone from the yeast two-hybrid screen, fused to the GAL4 transcription activation domain (protein, not shown: large carriers)
chain: MVPPRPDLAAEKEPASWKEGLFLDADPCSDQGYHANPGATVKTLIPEGKTPFPRIIQTNELLFYERFRAYQDYILADCKASEVKEFTVSFLEKVLEPSGWWAVWHTNVFEVLVEVTNVDFPSLKAVVRLAEPCIYESKLSTFTLANVKELLDLKEFHLPLQELWVVSDDSHEFHQMALAIEHVRFFYKHIWRSWDEEEEDEYDYFVRCVEPRLRLYYDILEDRVPSGLIVDYHNLLSQCEESYRKFLNLRSSLSNCNSDSEQENISMVEGLNLYSEIEQLKQKLKLIENPLLRYVFGYQKNSNIQGKGTRQNGQKVIHVVSSTMKTGLLRSLFKDRFCEESCKEETEIKFHSDLLSGINACYDGDTVIICPGHYVVHGTCSIADSIELEGYGLPDDIVIEKRGKGDTFVDCTGMDVKISGIKFIQHDSVEGILIIHHGKTTLENCVLQCETTGVTVRTSAELFMKNSDVYGAKGAGIEIYPGSKCTLTDNGIHHCKEGILIKDFLDEHYDIPKISMINNVIHNNEGYGVVLVKPTIFCDLQENTQDEINDNMVQKNKEADVTEGLDLEEMLQCVASKMEPYATADFNEQAKGNCEIINELLAISMQKGRMKKRLSELGITQADDNIMSQEMFIEIMGNQFKWNGKGSFGTFLY

binding [3]: binds
binding [4]: binds
binding [5]: binds
binding [6]: binds
binding [7]: binds
binding [8]: binds
B2: GST-Shc SH2 domain fusion protein (protein, UniProt P29353-2 378-469, looked up, not shown: a dimerising Fc or GST)
chain: WFHGKLSRREAEALLQLNGDFLVRESTTTPGQYVLTGLQSGQPKHLLLVDPEGVVRTKDHRFESVSHLISYHMDNHLPIISAGSELCLQQPV

binding [9]: binds
binding [10]: binds
B3: mPAL (amino acids 11 to 648) expressed in 293T cells from pcDNA3.1-mPAL (protein)
chain: T2 sequence

binding [11]: binds
B4: GST-mPAL fusion protein (PAL amino acids 11 to 648 in pGEX4T3) (protein, not shown: a dimerising Fc or GST)
chain: T2 sequence

binding [12]: binds
B5: human p52 Shc expressed in 293T cells from pECE-Shc (protein, UniProt P29353-2 1-473, looked up)
chain: T3 sequence (looked up)
